The list is a part of this screen's results and no random one: it is rich in T/C values a quarter to a half above the control, in often repeated tests (any T/C) and in doses without a T/C. Further doses and runs are listed elsewhere. T/C gives the treated animals as a percentage of the vehicle group. Some doses have a count of surviving animals in place of a T/C: the source files T/C as zero there, which appears to mark a toxic dose or a test without result, not a measured value. Some doses without a T/C left all or most animals alive at the check, yet need not have been tolerated: survival well below the control is almost never listed, so the zero probably covers shortened survival too. Counts of survivors are from the toxicity check (mostly the fifth day) where no day follows; animals may have died later. Schedules are NCI's codes, taken here to give the interval after Q, in days (D) or hours (H), and the number of doses after X. Some schedule codes hold Z or #, which are not explained here. For survival time, the PubChem record calls one and a half times the control and up active, and a quarter to a half above the control has no call in these data; cut-offs in other NCI protocols can differ. Some entries were tested several times; the results are listed from low to high. Some T/C values are followed by the survivors on the day toxicity was checked, most often the fifth; without a count, all were alive then. *1 amine or outer side, *2 acyl side, *3 side chain or, on linkers, in order; H or OH if unused. Where a SMILES comes first, the peptide text is derived from it. Bridges are numbered along the chain shown (N, C = ends). Roman numbers before positions name the chains, in order. [ ]: non-standard residue; d: D form. Actinocin(9to1) = Cc1c2oc3c(C)ccc(C(=O)[*:1])c3nc-2c(C(=O)[*:2])c(N)c1=O; aThr = C[C@H](O)[C@H](N)C(=O)O; NMeV = CN[C@H](C(=O)O)C(C)C; Sar = CNCC(=O)O
Tested on: BDF1 mice, L1210 Methyl-GAG-resistant leukemia, survival T/C
Test: NCI In Vivo Anticancer Drug Screen. Data for tumor model L1210 Leukemia resistant to Methyl-GAG; NSC 32946 (subcutaneous) in B6D2F1 (BDF1) mice
Details: T/C endpoint: mean survival time, schedule: Q01DX Z (ip), higher T/C = longer survival
Protocol: The antitumor activity of compounds was measured in mice bearing transplantable tumors. Survival or tumor size were measured and the results are expressed as the measurement made in the treated group (T) divided by the measurement made in the vehicle treated control group (C). The tumor model used in this assay is L1210 Leukemia resistant to Methyl-GAG; NSC 32946 (subcutaneous) in B6D2F1 (BDF1) mice

[1] = dose: 25.0 mg/kg/injection, vehicle: carboxymethylcellulose (CMC)
[2] = dose: 50.0 mg/kg/injection, vehicle: carboxymethylcellulose (CMC)

For `Nc1nc(SCc2ccccc2)c2[nH]cnc2n1`, the T/C [1] was 129 % of control and the survivor count [2] was 6 of 6.
`Nc1nc(N)c2nc(CNc3ccc(C(=O)NC(CCC(=O)O)C(=O)O)cc3)cnc2n1` (stereo unspecified) was tested, and the T/C (dose: 16.0 micrograms/kg/injection, vehicle: alkali diluted with saline) was 140 % of control, the survivor count (dose: 63.0 micrograms/kg/injection, vehicle: alkali diluted with saline) was 4 of 6 and the survivor count (dose: 250.0 micrograms/kg/injection, vehicle: alkali diluted with saline) was 6 of 6. For the same molecule, the survivor count (dose: 500.0 micrograms/kg/injection, vehicle: alkali diluted with saline) was 3 of 6.
In the case of `CSc1ncnc2c1ncn2C1OC(CO)C(O)C1O` (stereo unspecified), the T/C [1] is reported as 125 % of control [5 of 6 alive], the T/C [2] is reported as 128 % of control and the survivor count (dose: 100.0 mg/kg/injection, vehicle: carboxymethylcellulose (CMC)) is reported as 4 of 6. The survivor count (dose: 200.0 mg/kg/injection, vehicle: carboxymethylcellulose (CMC)) was 5 of 6 and the survivor count (dose: 400.0 mg/kg/injection, vehicle: carboxymethylcellulose (CMC)) was 0 of 6.
For `N=[N+]=CC(=O)OCC(N)C(=O)O` (stereo unspecified), the T/C (dose: 6.25 mg/kg/injection, vehicle: saline) was 140 % of control, the T/C (dose: 9.4 mg/kg/injection, vehicle: saline) was 144 % of control and the survivor count (dose: 50.0 mg/kg/injection, vehicle: saline) was 6 of 6.
`O=c1cnn(C2OC(CO)C(O)C2O)c(=O)[nH]1` (stereo unspecified) was tested, and the T/C (dose: 31.25 mg/kg/injection, vehicle: water) was 129 % of control, the T/C (dose: 62.5 mg/kg/injection, vehicle: water) was 142 % of control and the T/C (dose: 125.0 mg/kg/injection, vehicle: water) was 136 and 137 % of control. For the same molecule, the T/C (dose: 250.0 mg/kg/injection, vehicle: water) was 131 and 142 % of control, the T/C (dose: 500.0 mg/kg/injection, vehicle: water) was 125 [5 of 6 alive] and 140 % of control and the T/C (dose: 1000.0 mg/kg/injection, vehicle: water) was 129 % of control.
In the case of `Cc1c2oc3c(C)ccc(C(=O)N[C@@H]4C(=O)N[C@H](C(C)C)C(=O)N5CCC[C@H]5C(=O)N(C)CC(=O)N(C)[C@@H](C(C)C)C(=O)O[C@H]4C)c3nc-2c(C(=O)N[C@@H]2C(=O)N[C@H](C(C)C)C(=O)N3CCC[C@H]3C(=O)N(C)CC(=O)N(C)[C@@H](C(C)C)C(=O)O[C@H]2C)c(N)c1=O` (I: [aThr][dV]P[Sar][NMeV] / II: [aThr][dV]P[Sar][NMeV]; ester I:1-I:C, II:1-II:C; linker I:N-II:N via Actinocin(9to1)), the survivor count (dose: 12.8 micrograms/kg/injection, vehicle: saline) is reported as 6 of 6 and the survivor count (dose: 51.2 micrograms/kg/injection, vehicle: saline) is reported as 6 of 6.
In the case of `O=C(Nc1ccc(C2=NCCN2)cc1)c1cccc(C(=O)Nc2ccc(C3=NCCN3)cc2)c1`, the T/C (dose: 4.7 mg/kg/injection, vehicle: water) is reported as 142 % of control, the T/C (dose: 9.4 mg/kg/injection, vehicle: water) is reported as 145 % of control and the survivor count (dose: 100.0 mg/kg/injection, vehicle: water) is reported as 3 of 6. For the same molecule, the T/C (dose: 300.0 mg/kg/injection, vehicle: carboxymethylcellulose (CMC)) was 125 % of control [5 of 6 alive] and the survivor count (dose: 600.0 mg/kg/injection, vehicle: water) was 1 of 6.
In the case of `C[C@H](N)C(=O)N[C@@H]1[C@H]2C(=C(O)C[C@@H](O)[C@@H]2O)C(=O)O[C@@H]1C`, the T/C (dose: 500.0 mg/kg/injection, vehicle: saline) is reported as 149 % of control and the T/C (dose: 1000.0 mg/kg/injection, vehicle: saline) is reported as 129 % of control.
`S=c1nc[nH]c2nc[nH]c12` was tested, and the T/C (dose: 12.5 mg/kg/injection, vehicle: other) was 145 % of control, the T/C (dose: 18.75 mg/kg/injection, vehicle: other) was 128 % of control and the T/C (dose: 25.0 mg/kg/injection, vehicle: other) was 125 and 133 % of control. The T/C (dose: 100.0 mg/kg/injection, vehicle: other) was 128 % of control and the T/C (dose: 150.0 mg/kg/injection, vehicle: other) was 126 % of control.
For `S=P(N1CC1)(N1CC1)N1CC1`, the T/C (dose: 1.25 mg/kg/injection, vehicle: saline) was 142 % of control and the T/C (dose: 2.5 mg/kg/injection, vehicle: saline) was 136 % of control.

— PubChem BioAssay AID306 (DTP/NCI, 2004)
